Measured values: US4691008 (dated 1987)

Assay: general procedure: solution-phase peptide synthesis
Conditions: coupling step, Tos-OH salt

Z-Trp-Ser-Tyr-D-Ser(Bu^t)-Leu-Arg-Pro-NHEt*Tos-OH
step yield (T2 r4): 85-90% | step yield (T2 r6): 70-80% | step yield (run 1): 72% of theory
